Results are given in words; binding and its absence hold for the method and conditions named. In cells and extracts the contact can be indirect. Some binding calls cover weakened binding; strength is not graded here.

The chains behind the UniProt entries cited, without tags or fusion partners.
UniProt Q8R4B8: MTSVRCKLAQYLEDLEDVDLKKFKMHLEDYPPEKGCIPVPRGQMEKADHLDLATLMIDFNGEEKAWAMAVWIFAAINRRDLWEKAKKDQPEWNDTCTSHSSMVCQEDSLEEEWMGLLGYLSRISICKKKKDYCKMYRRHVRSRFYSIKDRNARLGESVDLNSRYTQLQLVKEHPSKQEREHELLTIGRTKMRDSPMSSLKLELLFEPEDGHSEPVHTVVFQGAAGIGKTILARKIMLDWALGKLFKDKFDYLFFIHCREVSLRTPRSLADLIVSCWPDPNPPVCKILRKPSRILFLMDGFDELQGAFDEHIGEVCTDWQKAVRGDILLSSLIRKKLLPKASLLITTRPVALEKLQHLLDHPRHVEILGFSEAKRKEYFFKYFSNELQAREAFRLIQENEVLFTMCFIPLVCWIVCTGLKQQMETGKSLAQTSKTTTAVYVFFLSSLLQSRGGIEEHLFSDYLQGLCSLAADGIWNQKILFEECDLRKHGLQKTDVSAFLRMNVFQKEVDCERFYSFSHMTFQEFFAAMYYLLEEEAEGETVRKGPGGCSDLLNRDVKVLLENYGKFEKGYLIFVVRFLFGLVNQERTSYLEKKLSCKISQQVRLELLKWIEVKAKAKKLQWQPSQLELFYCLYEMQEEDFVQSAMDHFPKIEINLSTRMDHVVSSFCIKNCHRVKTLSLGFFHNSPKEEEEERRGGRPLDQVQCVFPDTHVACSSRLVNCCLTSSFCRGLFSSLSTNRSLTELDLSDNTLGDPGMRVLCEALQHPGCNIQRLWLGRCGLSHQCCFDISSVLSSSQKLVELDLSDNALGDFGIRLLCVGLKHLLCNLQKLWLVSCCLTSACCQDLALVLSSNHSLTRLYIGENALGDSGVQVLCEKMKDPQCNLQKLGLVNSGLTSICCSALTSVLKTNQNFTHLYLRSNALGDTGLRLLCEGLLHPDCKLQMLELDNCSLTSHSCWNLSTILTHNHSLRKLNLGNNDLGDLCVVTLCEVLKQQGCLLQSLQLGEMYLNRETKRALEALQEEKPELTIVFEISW
UniProt P70658: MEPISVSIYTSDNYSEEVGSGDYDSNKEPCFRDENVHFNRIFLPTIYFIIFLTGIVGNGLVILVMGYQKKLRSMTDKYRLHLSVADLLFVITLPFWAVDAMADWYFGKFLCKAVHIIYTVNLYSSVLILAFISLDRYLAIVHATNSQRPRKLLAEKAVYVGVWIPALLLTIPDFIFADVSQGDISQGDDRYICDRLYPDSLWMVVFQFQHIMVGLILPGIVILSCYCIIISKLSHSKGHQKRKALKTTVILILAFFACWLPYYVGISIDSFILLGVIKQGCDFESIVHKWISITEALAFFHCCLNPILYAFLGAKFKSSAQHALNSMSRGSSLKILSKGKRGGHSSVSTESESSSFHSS

The target of experiment [1] is T1, Thioredoxin-interacting protein (TXNIP) (mouse (endogenous in spinal cord)) (UniProt Q8BG60).
T1 sequence: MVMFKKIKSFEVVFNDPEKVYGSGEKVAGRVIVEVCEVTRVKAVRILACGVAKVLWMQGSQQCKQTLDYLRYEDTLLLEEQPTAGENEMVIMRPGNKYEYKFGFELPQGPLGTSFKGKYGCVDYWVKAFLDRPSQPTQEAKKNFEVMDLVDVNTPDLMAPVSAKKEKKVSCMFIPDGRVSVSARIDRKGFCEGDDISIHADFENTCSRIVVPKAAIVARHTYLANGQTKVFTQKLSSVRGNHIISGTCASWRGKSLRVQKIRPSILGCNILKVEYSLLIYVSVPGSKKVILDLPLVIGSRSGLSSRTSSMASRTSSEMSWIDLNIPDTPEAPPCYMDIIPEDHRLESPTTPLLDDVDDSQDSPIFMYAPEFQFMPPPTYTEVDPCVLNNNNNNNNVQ
The experiment in a line: co-IP; spinal cord of sham and pSNL mice; Catch and Release Reversible Immunoprecipitation System kit (Millipore); rabbit/mouse IgG as control; immunoblot. In general terms: In western blotting, separated proteins are transferred to a membrane and probed.

Experiment [2] has as its target NOD-like receptor protein 3 (NLRP3) (mouse (endogenous in spinal cord)) (UniProt Q8R4B8). The description is as above.

Regarding “Chemokine CXC receptor 4 (CXCR4) (from UniProt P70658 1-359)”, in experiment [1], the binding result was “binds”.
The same measure, in the same setting: the result for “NOD-like receptor protein 3 (NLRP3) (from UniProt Q8R4B8 1-1033)” reads “binds”.

B1: Thioredoxin-interacting protein (TXNIP) (protein, UniProt Q8BG60-1 1-397)
chain: MVMFKKIKSFEVVFNDPEKVYGSGEKVAGRVIVEVCEVTRVKAVRILACGVAKVLWMQGSQQCKQTLDYLRYEDTLLLEEQPTAGENEMVIMRPGNKYEYKFGFELPQGPLGTSFKGKYGCVDYWVKAFLDRPSQPTQEAKKNFEVMDLVDVNTPDLMAPVSAKKEKKVSCMFIPDGRVSVSARIDRKGFCEGDDISIHADFENTCSRIVVPKAAIVARHTYLANGQTKVFTQKLSSVRGNHIISGTCASWRGKSLRVQKIRPSILGCNILKVEYSLLIYVSVPGSKKVILDLPLVIGSRSGLSSRTSSMASRTSSEMSWIDLNIPDTPEAPPCYMDIIPEDHRLESPTTPLLDDVDDSQDSPIFMYAPEFQFMPPPTYTEVDPCVLNNNNNNNNVQ
B1: the binding result in experiment [2] is “binds”.

For the origin of these results see PMC5791181.
